Laboratory results reported in publication PMC8273881.
No constants are given. Whether binding was seen depends on the method and setting. Binding seen in cells or lysates may run through a third protein. A yes stands for co-enrichment or nearness to the bait. Other partners may have been found.

Chains of the proteins cited; added tags and fusions are not shown.
UniProt Q9Y266: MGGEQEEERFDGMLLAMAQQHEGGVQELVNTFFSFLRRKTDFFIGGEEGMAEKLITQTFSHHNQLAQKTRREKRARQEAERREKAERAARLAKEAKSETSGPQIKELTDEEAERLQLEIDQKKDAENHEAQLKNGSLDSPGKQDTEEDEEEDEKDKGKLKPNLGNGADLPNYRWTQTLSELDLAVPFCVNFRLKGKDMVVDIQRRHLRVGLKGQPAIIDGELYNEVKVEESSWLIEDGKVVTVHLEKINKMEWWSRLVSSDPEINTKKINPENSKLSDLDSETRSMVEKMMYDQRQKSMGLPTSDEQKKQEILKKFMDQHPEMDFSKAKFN
UniProt P21333: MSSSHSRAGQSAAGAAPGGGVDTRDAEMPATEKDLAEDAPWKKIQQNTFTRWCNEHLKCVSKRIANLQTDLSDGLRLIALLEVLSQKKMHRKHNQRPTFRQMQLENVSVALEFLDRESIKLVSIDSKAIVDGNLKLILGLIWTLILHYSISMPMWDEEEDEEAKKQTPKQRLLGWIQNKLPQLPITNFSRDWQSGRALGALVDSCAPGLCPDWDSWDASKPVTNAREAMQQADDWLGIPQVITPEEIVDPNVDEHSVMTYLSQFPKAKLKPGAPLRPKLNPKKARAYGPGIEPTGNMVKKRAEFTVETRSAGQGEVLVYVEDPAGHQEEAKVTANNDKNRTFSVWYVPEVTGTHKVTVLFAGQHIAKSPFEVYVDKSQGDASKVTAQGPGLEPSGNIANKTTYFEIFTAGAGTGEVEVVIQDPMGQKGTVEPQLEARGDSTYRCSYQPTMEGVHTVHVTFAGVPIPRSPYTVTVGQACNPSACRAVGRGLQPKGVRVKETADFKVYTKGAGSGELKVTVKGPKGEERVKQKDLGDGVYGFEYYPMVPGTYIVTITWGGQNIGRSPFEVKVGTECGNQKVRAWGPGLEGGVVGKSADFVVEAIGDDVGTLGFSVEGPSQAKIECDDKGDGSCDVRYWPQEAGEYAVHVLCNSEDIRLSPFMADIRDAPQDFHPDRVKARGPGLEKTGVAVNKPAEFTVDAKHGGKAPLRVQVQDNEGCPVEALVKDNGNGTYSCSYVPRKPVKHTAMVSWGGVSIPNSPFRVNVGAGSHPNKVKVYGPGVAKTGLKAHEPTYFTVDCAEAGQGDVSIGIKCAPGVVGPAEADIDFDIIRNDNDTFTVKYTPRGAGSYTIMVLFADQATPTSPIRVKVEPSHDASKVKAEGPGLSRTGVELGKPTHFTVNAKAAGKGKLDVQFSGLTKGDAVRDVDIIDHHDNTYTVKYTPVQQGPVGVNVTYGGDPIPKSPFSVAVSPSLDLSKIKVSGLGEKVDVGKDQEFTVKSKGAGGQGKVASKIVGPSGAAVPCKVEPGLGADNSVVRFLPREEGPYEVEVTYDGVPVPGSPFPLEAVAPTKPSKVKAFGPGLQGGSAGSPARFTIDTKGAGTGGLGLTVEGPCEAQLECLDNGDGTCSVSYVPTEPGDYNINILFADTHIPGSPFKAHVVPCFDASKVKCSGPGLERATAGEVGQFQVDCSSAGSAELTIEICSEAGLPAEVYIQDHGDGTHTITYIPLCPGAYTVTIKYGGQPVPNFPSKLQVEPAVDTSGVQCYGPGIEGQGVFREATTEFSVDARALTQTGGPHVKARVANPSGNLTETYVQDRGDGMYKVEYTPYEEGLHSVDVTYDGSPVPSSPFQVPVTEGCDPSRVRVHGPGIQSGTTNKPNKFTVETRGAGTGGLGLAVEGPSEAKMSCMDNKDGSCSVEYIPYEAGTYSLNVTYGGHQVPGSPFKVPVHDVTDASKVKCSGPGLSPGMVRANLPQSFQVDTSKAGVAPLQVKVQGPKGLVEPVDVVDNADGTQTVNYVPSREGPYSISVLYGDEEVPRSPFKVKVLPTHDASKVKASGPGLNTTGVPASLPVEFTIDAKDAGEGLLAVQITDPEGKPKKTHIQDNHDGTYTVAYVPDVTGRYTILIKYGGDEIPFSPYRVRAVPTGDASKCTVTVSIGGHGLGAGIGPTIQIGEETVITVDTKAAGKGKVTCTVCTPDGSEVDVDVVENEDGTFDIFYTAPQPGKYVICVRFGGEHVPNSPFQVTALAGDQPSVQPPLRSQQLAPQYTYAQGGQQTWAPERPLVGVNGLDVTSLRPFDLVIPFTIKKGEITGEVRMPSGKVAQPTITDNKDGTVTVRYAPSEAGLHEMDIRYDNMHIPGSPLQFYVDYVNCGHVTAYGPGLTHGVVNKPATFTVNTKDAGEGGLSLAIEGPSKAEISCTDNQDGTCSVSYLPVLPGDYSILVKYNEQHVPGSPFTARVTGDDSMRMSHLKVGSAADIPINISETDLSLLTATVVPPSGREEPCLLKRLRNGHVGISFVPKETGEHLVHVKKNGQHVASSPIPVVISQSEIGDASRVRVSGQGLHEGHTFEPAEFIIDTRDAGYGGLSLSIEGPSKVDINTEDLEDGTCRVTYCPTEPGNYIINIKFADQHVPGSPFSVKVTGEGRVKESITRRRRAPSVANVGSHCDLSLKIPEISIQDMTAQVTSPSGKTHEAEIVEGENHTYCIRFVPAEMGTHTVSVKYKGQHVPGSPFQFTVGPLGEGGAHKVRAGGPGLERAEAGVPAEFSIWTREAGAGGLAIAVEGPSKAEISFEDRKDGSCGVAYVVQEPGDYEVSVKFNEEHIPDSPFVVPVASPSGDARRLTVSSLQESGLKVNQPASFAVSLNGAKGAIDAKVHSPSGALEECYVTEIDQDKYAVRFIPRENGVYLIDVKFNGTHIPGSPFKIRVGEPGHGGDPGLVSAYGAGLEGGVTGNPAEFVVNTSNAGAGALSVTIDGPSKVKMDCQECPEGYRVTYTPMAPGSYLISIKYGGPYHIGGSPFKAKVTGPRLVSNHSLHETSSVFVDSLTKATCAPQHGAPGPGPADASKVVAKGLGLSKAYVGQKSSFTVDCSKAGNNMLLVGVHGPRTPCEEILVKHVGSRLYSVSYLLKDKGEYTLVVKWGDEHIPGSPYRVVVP

Target: Nuclear distribution gene C (NudC), endogenous in HeLa cells (human (endogenous in HeLa)) (UniProt Q9Y266)
Assay: affinity purification with mass spectrometry; HeLa cell lysates incubated with anti-NudC antibodies; co-precipitated proteins digested with trypsin, LC-MS/MS

binding: binds
Substance: Filamin A, endogenous in HeLa cells (from UniProt P21333 1-2647)
